These results are taken from the supplement of paper PMC7666118.

Amino acid sequences for entries named in this document (tags omitted). A change or cut given only in a name is not applied to a line headed by its entry.
UniProt P61923: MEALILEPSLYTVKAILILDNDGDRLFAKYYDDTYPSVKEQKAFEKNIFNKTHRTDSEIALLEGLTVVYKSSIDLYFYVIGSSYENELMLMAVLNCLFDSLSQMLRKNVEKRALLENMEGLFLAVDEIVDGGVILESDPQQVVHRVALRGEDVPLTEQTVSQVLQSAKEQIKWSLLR
UniProt Q9P000, whole entry: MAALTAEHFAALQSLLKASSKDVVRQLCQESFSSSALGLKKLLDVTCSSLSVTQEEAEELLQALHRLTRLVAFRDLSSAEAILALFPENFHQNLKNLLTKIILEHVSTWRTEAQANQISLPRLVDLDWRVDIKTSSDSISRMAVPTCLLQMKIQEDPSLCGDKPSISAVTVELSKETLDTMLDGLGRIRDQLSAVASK
UniProt O94760: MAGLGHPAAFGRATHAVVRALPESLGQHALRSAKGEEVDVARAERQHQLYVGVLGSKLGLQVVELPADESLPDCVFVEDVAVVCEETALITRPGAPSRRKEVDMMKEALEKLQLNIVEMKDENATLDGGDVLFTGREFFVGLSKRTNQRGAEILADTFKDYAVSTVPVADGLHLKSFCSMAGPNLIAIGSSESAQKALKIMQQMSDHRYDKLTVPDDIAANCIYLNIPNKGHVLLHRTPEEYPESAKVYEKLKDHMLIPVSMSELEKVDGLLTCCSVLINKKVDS
UniProt Q9NUQ3: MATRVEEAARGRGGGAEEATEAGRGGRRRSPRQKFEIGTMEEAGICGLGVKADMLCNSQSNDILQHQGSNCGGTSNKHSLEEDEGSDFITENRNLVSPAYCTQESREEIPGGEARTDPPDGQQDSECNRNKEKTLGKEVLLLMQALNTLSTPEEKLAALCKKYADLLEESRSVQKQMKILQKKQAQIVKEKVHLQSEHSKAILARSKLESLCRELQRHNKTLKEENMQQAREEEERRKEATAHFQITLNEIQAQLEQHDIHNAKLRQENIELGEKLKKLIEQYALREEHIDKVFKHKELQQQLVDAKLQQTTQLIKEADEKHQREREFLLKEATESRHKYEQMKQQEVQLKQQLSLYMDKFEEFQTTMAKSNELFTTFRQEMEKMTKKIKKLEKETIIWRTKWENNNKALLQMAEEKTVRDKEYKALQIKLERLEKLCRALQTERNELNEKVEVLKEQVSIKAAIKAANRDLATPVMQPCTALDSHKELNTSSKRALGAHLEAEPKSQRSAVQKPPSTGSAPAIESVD
UniProt Q9UJV9: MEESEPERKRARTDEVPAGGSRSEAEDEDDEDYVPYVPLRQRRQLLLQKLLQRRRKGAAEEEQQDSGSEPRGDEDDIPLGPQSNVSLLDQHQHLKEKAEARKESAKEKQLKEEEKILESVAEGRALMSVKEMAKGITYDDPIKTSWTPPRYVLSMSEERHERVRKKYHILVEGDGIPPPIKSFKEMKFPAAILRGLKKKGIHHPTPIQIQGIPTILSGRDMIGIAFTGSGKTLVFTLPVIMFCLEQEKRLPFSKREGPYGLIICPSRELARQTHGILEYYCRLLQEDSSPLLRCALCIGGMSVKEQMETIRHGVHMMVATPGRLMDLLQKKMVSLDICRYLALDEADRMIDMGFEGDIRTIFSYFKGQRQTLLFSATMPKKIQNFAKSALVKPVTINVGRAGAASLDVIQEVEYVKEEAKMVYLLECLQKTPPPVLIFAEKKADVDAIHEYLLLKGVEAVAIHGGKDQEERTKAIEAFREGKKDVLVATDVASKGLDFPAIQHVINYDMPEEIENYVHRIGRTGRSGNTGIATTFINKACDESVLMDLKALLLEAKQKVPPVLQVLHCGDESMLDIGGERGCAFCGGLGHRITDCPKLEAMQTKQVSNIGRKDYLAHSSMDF
UniProt Q8IV53: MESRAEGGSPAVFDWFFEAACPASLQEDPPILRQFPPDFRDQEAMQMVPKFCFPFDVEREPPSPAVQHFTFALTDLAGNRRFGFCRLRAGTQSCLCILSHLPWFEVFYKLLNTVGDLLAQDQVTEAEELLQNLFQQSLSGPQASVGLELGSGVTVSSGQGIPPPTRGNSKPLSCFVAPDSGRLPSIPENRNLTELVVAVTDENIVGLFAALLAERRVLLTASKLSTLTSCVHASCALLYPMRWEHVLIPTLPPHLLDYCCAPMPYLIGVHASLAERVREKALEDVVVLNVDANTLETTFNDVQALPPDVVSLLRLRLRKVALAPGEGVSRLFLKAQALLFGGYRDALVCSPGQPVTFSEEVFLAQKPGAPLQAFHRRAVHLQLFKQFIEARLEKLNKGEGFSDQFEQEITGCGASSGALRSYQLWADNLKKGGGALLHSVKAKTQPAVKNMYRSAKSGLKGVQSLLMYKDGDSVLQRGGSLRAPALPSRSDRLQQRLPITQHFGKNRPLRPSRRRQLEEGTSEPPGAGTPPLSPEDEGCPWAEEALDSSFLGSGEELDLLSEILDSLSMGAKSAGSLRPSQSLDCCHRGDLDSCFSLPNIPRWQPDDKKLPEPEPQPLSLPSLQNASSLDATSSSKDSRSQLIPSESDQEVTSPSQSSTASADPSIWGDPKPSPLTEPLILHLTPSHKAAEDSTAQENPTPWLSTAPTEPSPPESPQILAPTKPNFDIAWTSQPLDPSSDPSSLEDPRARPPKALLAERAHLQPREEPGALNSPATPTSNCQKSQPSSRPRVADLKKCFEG
UniProt O00571: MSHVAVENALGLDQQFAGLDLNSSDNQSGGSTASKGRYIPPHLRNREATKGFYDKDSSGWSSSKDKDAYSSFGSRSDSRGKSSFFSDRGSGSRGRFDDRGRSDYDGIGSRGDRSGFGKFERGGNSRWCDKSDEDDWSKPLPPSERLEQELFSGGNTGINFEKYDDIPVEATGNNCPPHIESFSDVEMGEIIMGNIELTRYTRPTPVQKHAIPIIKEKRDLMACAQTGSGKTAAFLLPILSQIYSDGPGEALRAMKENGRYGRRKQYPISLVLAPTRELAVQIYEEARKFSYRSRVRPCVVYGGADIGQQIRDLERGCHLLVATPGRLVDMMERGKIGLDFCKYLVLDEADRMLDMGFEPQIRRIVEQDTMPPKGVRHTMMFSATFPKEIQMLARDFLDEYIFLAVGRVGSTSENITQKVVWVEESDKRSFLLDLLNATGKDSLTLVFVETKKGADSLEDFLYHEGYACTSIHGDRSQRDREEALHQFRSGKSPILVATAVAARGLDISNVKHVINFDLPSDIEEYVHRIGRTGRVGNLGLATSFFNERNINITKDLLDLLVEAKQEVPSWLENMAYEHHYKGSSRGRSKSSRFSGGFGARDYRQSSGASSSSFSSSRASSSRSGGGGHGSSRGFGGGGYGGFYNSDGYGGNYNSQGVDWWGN
UniProt Q08211, whole entry: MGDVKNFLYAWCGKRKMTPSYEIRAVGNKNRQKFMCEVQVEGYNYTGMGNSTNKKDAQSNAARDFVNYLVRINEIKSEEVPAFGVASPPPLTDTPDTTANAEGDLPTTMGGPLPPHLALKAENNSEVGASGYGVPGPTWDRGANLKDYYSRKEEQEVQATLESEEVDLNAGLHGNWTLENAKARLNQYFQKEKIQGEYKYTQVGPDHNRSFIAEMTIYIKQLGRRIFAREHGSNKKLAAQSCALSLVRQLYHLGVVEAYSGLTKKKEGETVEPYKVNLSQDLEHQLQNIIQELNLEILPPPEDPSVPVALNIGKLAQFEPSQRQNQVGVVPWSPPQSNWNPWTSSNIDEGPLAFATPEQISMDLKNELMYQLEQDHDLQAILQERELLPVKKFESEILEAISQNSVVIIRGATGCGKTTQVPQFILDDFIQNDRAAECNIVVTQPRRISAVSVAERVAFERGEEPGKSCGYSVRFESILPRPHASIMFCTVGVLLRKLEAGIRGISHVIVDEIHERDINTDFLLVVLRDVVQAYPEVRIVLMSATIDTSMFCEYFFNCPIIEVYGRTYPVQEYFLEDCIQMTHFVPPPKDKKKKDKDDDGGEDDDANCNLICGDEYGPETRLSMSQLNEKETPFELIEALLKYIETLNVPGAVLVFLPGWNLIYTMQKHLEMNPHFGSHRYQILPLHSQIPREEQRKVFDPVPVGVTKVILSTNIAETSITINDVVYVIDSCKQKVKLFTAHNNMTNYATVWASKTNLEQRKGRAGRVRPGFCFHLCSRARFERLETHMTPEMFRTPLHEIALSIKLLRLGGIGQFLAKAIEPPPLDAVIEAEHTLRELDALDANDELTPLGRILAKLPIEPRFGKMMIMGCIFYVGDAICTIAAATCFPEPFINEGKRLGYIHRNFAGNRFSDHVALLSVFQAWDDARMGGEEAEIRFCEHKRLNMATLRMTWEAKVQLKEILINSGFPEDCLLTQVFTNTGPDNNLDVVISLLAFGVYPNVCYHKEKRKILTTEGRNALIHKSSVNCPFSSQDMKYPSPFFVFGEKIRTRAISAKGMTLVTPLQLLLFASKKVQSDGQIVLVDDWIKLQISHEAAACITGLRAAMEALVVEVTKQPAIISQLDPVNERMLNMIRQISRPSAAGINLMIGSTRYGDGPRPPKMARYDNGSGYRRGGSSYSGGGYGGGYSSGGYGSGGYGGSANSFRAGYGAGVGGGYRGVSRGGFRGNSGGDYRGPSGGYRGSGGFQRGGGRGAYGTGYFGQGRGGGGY
UniProt Q99807: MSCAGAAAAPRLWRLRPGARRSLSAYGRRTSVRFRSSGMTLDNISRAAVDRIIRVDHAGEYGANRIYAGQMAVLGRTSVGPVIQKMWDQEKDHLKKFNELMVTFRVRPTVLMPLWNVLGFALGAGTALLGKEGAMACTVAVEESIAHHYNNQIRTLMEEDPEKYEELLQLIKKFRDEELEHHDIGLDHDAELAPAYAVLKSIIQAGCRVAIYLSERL
UniProt P35606: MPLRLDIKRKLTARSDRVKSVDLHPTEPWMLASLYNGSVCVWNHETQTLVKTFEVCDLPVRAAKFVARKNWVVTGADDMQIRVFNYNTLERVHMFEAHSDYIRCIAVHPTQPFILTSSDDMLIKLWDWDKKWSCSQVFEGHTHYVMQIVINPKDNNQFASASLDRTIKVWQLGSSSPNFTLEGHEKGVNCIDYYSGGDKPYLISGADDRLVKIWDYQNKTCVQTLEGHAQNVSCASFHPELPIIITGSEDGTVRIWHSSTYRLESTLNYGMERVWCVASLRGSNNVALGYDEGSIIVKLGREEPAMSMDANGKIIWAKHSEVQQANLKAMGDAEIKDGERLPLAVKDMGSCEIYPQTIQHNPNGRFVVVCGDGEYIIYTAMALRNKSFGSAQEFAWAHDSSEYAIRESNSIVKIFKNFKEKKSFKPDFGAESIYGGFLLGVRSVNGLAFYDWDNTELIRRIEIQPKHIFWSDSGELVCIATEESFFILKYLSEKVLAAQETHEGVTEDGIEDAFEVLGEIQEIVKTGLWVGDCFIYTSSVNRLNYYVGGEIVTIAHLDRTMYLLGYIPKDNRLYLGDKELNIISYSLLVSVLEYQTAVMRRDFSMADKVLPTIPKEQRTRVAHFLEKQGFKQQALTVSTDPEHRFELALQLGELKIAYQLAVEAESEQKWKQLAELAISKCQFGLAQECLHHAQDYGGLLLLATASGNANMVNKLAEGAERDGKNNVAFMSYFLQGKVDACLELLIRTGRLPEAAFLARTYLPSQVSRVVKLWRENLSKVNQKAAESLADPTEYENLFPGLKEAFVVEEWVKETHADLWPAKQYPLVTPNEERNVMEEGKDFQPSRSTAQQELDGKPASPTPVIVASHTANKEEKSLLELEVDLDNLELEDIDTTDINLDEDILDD

Some of the results follow.

Compound in this assay: COc1ccc(Cn2ccc3ccc(C(=O)NO)cc32)cc1
As to the kind of experiment: dose-dependent thermal stabilisation call (2D-TPP, DLPTP, 10% FDR) (binary (1 = stabilised)); higher = stabilised by the compound. The conditions noted are these: system: HL-60 intact cells; concentration range 0.04-10 µM.
With COPZ1 (UniProt P61923), the “dose-dependent thermal stabilisation call” value was inactive: 0.
To COMMD9 (UniProt Q9P000) belongs inactive: 0; to DDAH1 (UniProt O94760), inactive: 0.
To CXORF15 (UniProt Q9NUQ3) belongs inactive: 0; to DDX41 (UniProt Q9UJV9), inactive: 0; to DENND1C (UniProt Q8IV53), inactive: 0.
Regarding DDX3X (UniProt O00571), the “dose-dependent thermal stabilisation call” value was inactive: 0.
Turning to DHX9 (UniProt Q08211), the “dose-dependent thermal stabilisation call” value was inactive: 0.
To COQ7 (UniProt Q99807) belongs inactive: 0.
To COPB2 (UniProt P35606) belongs inactive: 0.
